Test results: patent US10919935B2, “Antimicrobial peptide derived from myxinidin peptide and uses thereof” (INDUSTRY-ACADEMIC COOPERATION FOUNDATION, CHOSUN UNIVERSITY, priority 2015, dated 2021)
Part of at least one peptide drawing is inferred or uncertain, most often the ends. Residues, ends and D or L forms follow the SMILES beside them.

What was measured:
S. typhimurium 8009 = test: MIC at salt concentration (Example 3); type: cell-based, Salmonella typhimurium
Description: (§1) To compare the antimicrobial activity of the peptide produced by the method of Example 1, the inventors of the present invention measured the minimum growth inhibitory concentration (MIC), which is minimum concentration of the peptide showing no dissociation of bacterial cells, at salt concentration.
(§2) Specifically, the bacterial strain described in the above Table 2 was cultured in each medium to a mid-log phase. Then, after dilution to bacterial cell concentration of 2×10^5 cells/100 μl, the cells were inoculated to a microtiter plate (NUNC, USA). Thereafter, myxinidin 1, myxinidin 2, or myxinidin 3 peptides which have been synthesized in Example 1 above was diluted, 1/2 times for each, with BSA+150 mM sodium chloride (NaCl) solution, physiological saline (PBS) solution, or 10 mM sodium phosphate (SP) solution in a 96-well plate. After adding the cells to a plate, the cells were cultured for 12 hours at 37° C. By using a microtiter plate reader (Merck Elisa reader, Germany), the absorbance was measured at a wavelength of 600 nm to determine the MIC value of each bacterial strain. As a control group, myxinidin as a mother peptide was subjected to the same processes as above and the MIC value of each bacterial strain was obtained.

S. typhimurium 8013 = test: MIC at salt concentration (Example 3); type: cell-based, Salmonella typhimurium
Description: as §1, §2

S. typhimurium = test: MIC at salt concentration (Example 3); type: cell-based, Salmonella typhimurium
Description: as §1, §2

S. aureus 3114 = test: MIC at salt concentration (Example 3); type: cell-based, Staphylococcus aureus
Description: as §1, §2

S. aureus 3709 = test: MIC at salt concentration (Example 3); type: cell-based, Staphylococcus aureus
Description: as §1, §2

S. aureus [1] = test: MIC at salt concentration (Example 3); type: cell-based, Staphylococcus aureus
Description: as §1, §2

L. monocytogenes [2] = test: MIC at salt concentration (Example 3); type: cell-based, Listeria monocytogenes
Description: as §1, §2

Escherichia coli 1229 = test: MIC at salt concentration (Example 3); type: cell-based
Description: as §1, §2

Escherichia coli 1238 = test: MIC at salt concentration (Example 3); type: cell-based
Description: as §1, §2

Escherichia coli = test: MIC at salt concentration (Example 3); type: cell-based
Description: as §1, §2

P. aeruginosa 3592 = test: MIC at salt concentration (Example 3); type: cell-based, Pseudomonas aeruginosa
Description: as §1, §2

P. aeruginosa 5018 = test: MIC at salt concentration (Example 3); type: cell-based, Pseudomonas aeruginosa
Description: as §1, §2

P. aeruginosa [3] = test: MIC at salt concentration (Example 3); type: cell-based, Pseudomonas aeruginosa
Description: as §1, §2

P. aeruginosa [4] = test: Anti-biofilm activity (crystal violet); type: cell-based, Pseudomonas aeruginosa
Description: (§3) To compare the antimicrobial activity of the peptide produced by the method of Example 1, the inventors of the present invention measured the biofilm inhibitory concentration value of the peptide showing no dissociation of bacterial cells.
(§4) Specifically, the Gram-negative bacteria and Gram-positive bacteria among the bacterial strains described in the above Table 2 were cultured in each medium to a mid-log phase. Then, after dilution to bacterial cell concentration of 5×10^5 cells/100 μl, the cells were inoculated to a microtiter plate (NUNC, USA). Thereafter, myxinidin 1, myxinidin 2, or myxinidin 3 peptides which have been synthesized in Example 1 above was diluted, 1/10 times for each, with physiological saline (PBS) solution in a 96-well plate. After adding the cells to a plate, the cells were cultured for 12 hours at 37° C. After removing the supernatant, the cells were fixed with 100% methanol and reacted for 2 hours with Crystal violet staining solution followed by rinsing for 3 times. Then, after dissolving in 95% ethanol, the absorbance was measured at a wavelength of 595 nm by using a microtiter plate reader (Merck Elisa reader, Germany) to determine the biofilm inhibitory concentration value of each bacterial strain. As a control group, myxinidin as a mother peptide was subjected to the same processes as above and the biofilm inhibitory concentration value of each bacterial strain was obtained.

S. aureus [5] = test: Anti-biofilm activity (crystal violet); type: cell-based, Staphylococcus aureus
Description: as §3, §4

L. monocytogenes [6] = test: Anti-biofilm activity (crystal violet); type: cell-based, Listeria monocytogenes
Description: as §3, §4

[7] = NaCl (BSA+150 mM sodium chloride)

CC[C@H](C)[C@H](NC(=O)CN)C(=O)N[C@@H](Cc1c[nH]cn1)C(=O)N[C@@H](CC(=O)O)C(=O)N[C@H](C(=O)N[C@@H](CC(C)C)C(=O)N[C@@H](CCCCN)C(=O)N[C@@H](Cc1ccc(O)cc1)C(=O)NCC(=O)N[C@@H](CCCCN)C(=O)N1CCC[C@H]1C(=O)N[C@@H](CO)C(N)=O)[C@@H](C)CC [Myxinidin, GIHDILKYGKPS-NH2] (H-GIHDILKYGKPS-NH2)
88%: Biofilm forming ability (P. aeruginosa [4]; peptide 8 μM) | Biofilm forming ability (P. aeruginosa [4]; peptide 16 μM) | Biofilm forming ability (P. aeruginosa [4]; peptide 32 μM)
91%: Biofilm forming ability (P. aeruginosa [4]; peptide 1 μM) | Biofilm forming ability (P. aeruginosa [4]; peptide 2 μM)
100%: Biofilm forming ability (P. aeruginosa [4]; peptide 0.25 μM) | Biofilm forming ability (P. aeruginosa [4]; peptide 0.5 μM) | Biofilm forming ability (S. aureus [5]; peptide 0.25 μM) | Biofilm forming ability (L. monocytogenes [6]; peptide 0.25 μM) | Biofilm forming ability (L. monocytogenes [6]; peptide 0.5 μM) | Biofilm forming ability (L. monocytogenes [6]; peptide 1 μM) | Biofilm forming ability (L. monocytogenes [6]; peptide 2 μM) | Biofilm forming ability (L. monocytogenes [6]; peptide 4 μM) | Biofilm forming ability (L. monocytogenes [6]; peptide 8 μM)
>32: Antimicrobial activity (MIC) according to salt concentration (S. typhimurium 8009; [7]) | Antimicrobial activity (MIC) according to salt concentration (S. typhimurium 8009; PBS) | Antimicrobial activity (MIC) according to salt concentration (S. typhimurium 8009; SP (10 mM sodium phosphate)) | Antimicrobial activity (MIC) according to salt concentration (S. typhimurium 8013; [7]) | Antimicrobial activity (MIC) according to salt concentration (S. typhimurium 8013; PBS) | Antimicrobial activity (MIC) according to salt concentration (S. typhimurium 8013; SP (10 mM sodium phosphate)) | Antimicrobial activity (MIC) according to salt concentration (S. typhimurium; [7]) | Antimicrobial activity (MIC) according to salt concentration (S. typhimurium; PBS) | Antimicrobial activity (MIC) according to salt concentration (S. typhimurium; SP (10 mM sodium phosphate)) | Antimicrobial activity (MIC) according to salt concentration (S. aureus 3114; [7]) | Antimicrobial activity (MIC) according to salt concentration (S. aureus 3114; PBS) | Antimicrobial activity (MIC) according to salt concentration (S. aureus 3114; SP (10 mM sodium phosphate)) | Antimicrobial activity (MIC) according to salt concentration (S. aureus 3709; [7]) | Antimicrobial activity (MIC) according to salt concentration (S. aureus 3709; PBS) | Antimicrobial activity (MIC) according to salt concentration (S. aureus 3709; SP (10 mM sodium phosphate)) | Antimicrobial activity (MIC) according to salt concentration (S. aureus [1]; [7]) | Antimicrobial activity (MIC) according to salt concentration (S. aureus [1]; PBS) | Antimicrobial activity (MIC) according to salt concentration (S. aureus [1]; SP (10 mM sodium phosphate)) | Antimicrobial activity (MIC) according to salt concentration (L. monocytogenes [2]; [7]) | Antimicrobial activity (MIC) according to salt concentration (L. monocytogenes [2]; PBS) | Antimicrobial activity (MIC) according to salt concentration (L. monocytogenes [2]; SP (10 mM sodium phosphate)) | Antimicrobial activity (MIC) according to salt concentration (Escherichia coli 1229; [7]) | Antimicrobial activity (MIC) according to salt concentration (Escherichia coli 1229; PBS) | Antimicrobial activity (MIC) according to salt concentration (Escherichia coli 1229; SP (10 mM sodium phosphate)) | Antimicrobial activity (MIC) according to salt concentration (Escherichia coli 1238; [7]) | Antimicrobial activity (MIC) according to salt concentration (Escherichia coli 1238; PBS) | Antimicrobial activity (MIC) according to salt concentration (Escherichia coli 1238; SP (10 mM sodium phosphate)) | Antimicrobial activity (MIC) according to salt concentration (Escherichia coli; [7]) | Antimicrobial activity (MIC) according to salt concentration (Escherichia coli; PBS) | Antimicrobial activity (MIC) according to salt concentration (Escherichia coli; SP (10 mM sodium phosphate)) | Antimicrobial activity (MIC) according to salt concentration (P. aeruginosa 3592; [7]) | Antimicrobial activity (MIC) according to salt concentration (P. aeruginosa 3592; PBS) | Antimicrobial activity (MIC) according to salt concentration (P. aeruginosa 3592; SP (10 mM sodium phosphate)) | Antimicrobial activity (MIC) according to salt concentration (P. aeruginosa 5018; [7]) | Antimicrobial activity (MIC) according to salt concentration (P. aeruginosa 5018; PBS) | Antimicrobial activity (MIC) according to salt concentration (P. aeruginosa 5018; SP (10 mM sodium phosphate)) | Antimicrobial activity (MIC) according to salt concentration (P. aeruginosa [3]; [7]) | Antimicrobial activity (MIC) according to salt concentration (P. aeruginosa [3]; PBS) | Antimicrobial activity (MIC) according to salt concentration (P. aeruginosa [3]; SP (10 mM sodium phosphate))
93%: Biofilm forming ability (S. aureus [5]; peptide 0.5 μM)
80%: Biofilm forming ability (S. aureus [5]; peptide 2 μM) | Biofilm forming ability (S. aureus [5]; peptide 4 μM)
99%: Biofilm forming ability (L. monocytogenes [6]; peptide 16 μM)
95%: Biofilm forming ability (L. monocytogenes [6]; peptide 32 μM)
74%: Biofilm forming ability (S. aureus [5]; peptide 8 μM)
89%: Biofilm forming ability (P. aeruginosa [4]; peptide 4 μM)
73%: Biofilm forming ability (S. aureus [5]; peptide 16 μM) | Biofilm forming ability (S. aureus [5]; peptide 32 μM)
86%: Biofilm forming ability (S. aureus [5]; peptide 1 μM)
